# Data published in the supplement of paper PMC8728848.
# Some of the results follow.
# Experiments:
# Experiment in all cases: glycan array binding signal (z-score within array); higher = stronger binding
# Settings in all cases: glycan notation: IUPAC condensed, linker removed
# [1] = target: Man(a1-2)Man(a1-3)[Man(a1-2)Man(a1-6)]Man(a1-6)[Man(a1-2)Man(a1-2)Man(a1-3)]Man
# Procedure, shortened: (§1)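 Glycan array binding is given as a within-array Z-score, which can be read as non-binding when negative. The arrays, 3228 of them, came from the Consortium for Functional Glycomics database and were retained only where the protein sequence was available. Z-scores were averaged across arrays of the same protein sequence at different concentrations or buffers and across linkers.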
# [2] = target: Man(a1-2)Man(a1-3)[Man(a1-2)Man(a1-6)]Man(a1-6)[Man(a1-2)Man(a1-2)Man(a1-3)]Man(b1-4)GlcNAc(b1-4)GlcNAc
# Procedure, shortened: as §1
# [3] = target: Man(a1-2)Man(a1-3)[Man(a1-6)]Man(a1-6)[Man(a1-2)Man(a1-3)]Man(b1-4)GlcNAc(b1-4)GlcNAc
# Procedure, shortened: as §1
# [4] = target: Man(a1-2)Man(a1-6)[Man(a1-3)]Man(a1-6)[Man(a1-2)Man(a1-2)Man(a1-3)]Man
# Procedure, shortened: as §1
# [5] = target: Man(a1-2)Man(a1-6)[Man(a1-3)]Man(a1-6)[Man(a1-2)Man(a1-2)Man(a1-3)]Man(b1-4)GlcNAc(b1-4)GlcNAc
# Procedure, shortened: as §1
# [6] = target: Man(a1-3)[Man(a1-6)]Man
# Procedure, shortened: as §1
# [7] = target: Man(a1-3)[Man(a1-6)]Man(a1-6)[Man(a1-2)Man(a1-3)]Man(b1-4)GlcNAc(b1-4)GlcNAc
# Procedure, shortened: as §1
# [8] = target: Man(a1-3)[Man(a1-6)]Man(a1-6)[Man(a1-3)]Man
# Procedure, shortened: as §1
# [9] = target: Man(a1-3)[Man(a1-6)]Man(a1-6)[Man(a1-3)]Man(b1-4)GlcNAc(b1-4)GlcNAc
# Procedure, shortened: as §1
# [10] = target: Man(a1-3)[Man(a1-6)]Man(b1-4)GlcNAc(b1-4)GlcNAc
# Procedure, shortened: as §1
# [11] = target: Man(a1-3)[Man(a1-6)]Man(b1-4)GlcNAc(b1-4)[Fuc(a1-6)]GlcNAc
# Procedure, shortened: as §1
# [12] = target: Man(a1-6)Man
# Procedure, shortened: as §1
# [13] = target: Man(b1-4)GlcNAc
# Procedure, shortened: as §1
# [14] = target: MurNAc(b1-4)GlcNAc
# Procedure, shortened: as §1
# [15] = target: Neu5Ac(a2-3)Gal
# Procedure, shortened: as §1
# [16] = target: Neu5Ac(a2-3)Gal(b1-3)GalNAc
# Procedure, shortened: as §1
# [17] = target: Neu5Ac(a2-3)Gal(b1-3)GalNAc(b1-3)Gal(a1-4)Gal(b1-4)Glc
# Procedure, shortened: as §1
# [18] = target: Neu5Ac(a2-3)Gal(b1-3)GalNAc(b1-4)[Neu5Ac(a2-3)]Gal(b1-4)Glc
# Procedure, shortened: as §1
# [19] = target: Neu5Ac(a2-3)Gal(b1-3)GalNAc(b1-4)[Neu5Ac(a2-8)Neu5Ac(a2-3)]Gal(b1-4)Glc
# Procedure, shortened: as §1
# [20] = target: Neu5Ac(a2-3)Gal(b1-3)GalNAc6S
# Procedure, shortened: as §1
# [21] = target: Neu5Ac(a2-3)Gal(b1-3)GlcNAc
# Procedure, shortened: as §1
# [22] = target: Neu5Ac(a2-3)Gal(b1-3)GlcNAc(b1-2)Man
# Procedure, shortened: as §1
# [23] = target: Neu5Ac(a2-3)Gal(b1-3)GlcNAc(b1-2)Man(a1-3)[GlcNAc(b1-4)][Neu5Ac(a2-3)Gal(b1-3)GlcNAc(b1-2)Man(a1-6)]Man(b1-4)GlcNAc(b1-4)GlcNAc
# Procedure, shortened: as §1
# [24] = target: Neu5Ac(a2-3)Gal(b1-3)GlcNAc(b1-2)Man(a1-3)[Neu5Ac(a2-3)Gal(b1-3)GlcNAc(b1-2)Man(a1-6)]Man(b1-4)GlcNAc(b1-4)GlcNAc
# Procedure, shortened: as §1
# [25] = target: Neu5Ac(a2-3)Gal(b1-3)GlcNAc(b1-3)Gal(b1-3)GlcNAc
# Procedure, shortened: as §1
# [26] = target: Neu5Ac(a2-3)Gal(b1-3)GlcNAc(b1-3)Gal(b1-4)GlcNAc
# Procedure, shortened: as §1
# [27] = target: Neu5Ac(a2-3)Gal(b1-3)GlcNAc(b1-3)GalNAc
# Procedure, shortened: as §1
# [28] = target: Neu5Ac(a2-3)Gal(b1-3)GlcNAc(b1-4)Gal(b1-4)Glc
# Procedure, shortened: as §1
# [29] = target: Neu5Ac(a2-3)Gal(b1-3)GlcNAc(b1-6)GalNAc
# Procedure, shortened: as §1
# [30] = target: Neu5Ac(a2-3)Gal(b1-3)GlcNAc6S
# Procedure, shortened: as §1
# [31] = target: Neu5Ac(a2-3)Gal(b1-3)[Fuc(a1-4)]GlcNAc
# Procedure, shortened: as §1
# [32] = target: Neu5Ac(a2-3)Gal(b1-3)[Fuc(a1-4)]GlcNAc(b1-3)Gal(b1-3)[Fuc(a1-4)]GlcNAc
# Procedure, shortened: as §1
# [33] = target: Neu5Ac(a2-3)Gal(b1-3)[Fuc(a1-4)]GlcNAc(b1-3)Gal(b1-4)[Fuc(a1-3)]GlcNAc
# Procedure, shortened: as §1
# [34] = target: Neu5Ac(a2-3)Gal(b1-3)[GlcNAc(b1-6)]GalNAc
# Procedure, shortened: as §1
# [35] = target: Neu5Ac(a2-3)Gal(b1-3)[Neu5Ac(a2-6)]GalNAc
# Procedure, shortened: as §1
# [36] = target: Neu5Ac(a2-3)Gal(b1-3)[Neu5Ac(a2-6)]GlcNAc(b1-3)[Fuc(a1-3)[Gal(b1-4)]GlcNAc(b1-6)]Gal(b1-4)Glc
# Procedure, shortened: as §1
# [37] = target: Neu5Ac(a2-3)Gal(b1-3)]Neu5Ac(a2-3)Gal(b1-4)]GlcNAc
# Procedure, shortened: as §1
binder,measurement,setting,value
"Protein L(B1-B4) (Finegoldia magna), Q51912 (protein) KEETPETPETDSEEEVTIKANLIFANGSTQTAEFKGTFEKATSEAYAYADTLKKDNGEYTVDVADKGYTLNIKFAGKEKTPEEPKEEVTIKANLIYADGKTQTAEFKGTFEEATAEAYRYADALKKDNGEYTVDVADKGYTLNIKFAGKEKTPEEPKEEVTIKANLIYADGKTQTAEFKGTFEEATAEAYRYADLLAKENGKYTVDVADKGYTLNIKFAGKEKTPEEPKEEVTIKANLIYADGKTQTAEFKGTFAEATAEAYRYADLLAKENGKYTADLEDGGYTINIRFAG",glycan array binding signal (z-score),[1],-0.82
same,glycan array binding signal (z-score),[2],0.717
same,glycan array binding signal (z-score),[3],-0.027
same,glycan array binding signal (z-score),[4],-0.6
same,glycan array binding signal (z-score),[5],-0.64
same,glycan array binding signal (z-score),[6],-0.479
same,glycan array binding signal (z-score),[7],2.94
same,glycan array binding signal (z-score),[8],-0.4
same,glycan array binding signal (z-score),[9],0.111
same,glycan array binding signal (z-score),[10],0.117
same,glycan array binding signal (z-score),[11],-0.445
same,glycan array binding signal (z-score),[12],-0.159
same,glycan array binding signal (z-score),[13],-0.62
same,glycan array binding signal (z-score),[14],-1.04
same,glycan array binding signal (z-score),[15],-0.766
same,glycan array binding signal (z-score),[16],-0.542
same,glycan array binding signal (z-score),[17],0.345
same,glycan array binding signal (z-score),[18],-0.583
same,glycan array binding signal (z-score),[19],0.74
same,glycan array binding signal (z-score),[20],-0.621
same,glycan array binding signal (z-score),[21],-0.387
same,glycan array binding signal (z-score),[22],1.77
same,glycan array binding signal (z-score),[23],0.659
same,glycan array binding signal (z-score),[24],-0.453
same,glycan array binding signal (z-score),[25],-0.63
same,glycan array binding signal (z-score),[26],-0.363
same,glycan array binding signal (z-score),[27],-0.496
same,glycan array binding signal (z-score),[28],-0.762
same,glycan array binding signal (z-score),[29],0.922
same,glycan array binding signal (z-score),[30],0.538
same,glycan array binding signal (z-score),[31],-0.716
same,glycan array binding signal (z-score),[32],0.953
same,glycan array binding signal (z-score),[33],1.63
same,glycan array binding signal (z-score),[34],-0.677
same,glycan array binding signal (z-score),[35],0.854
same,glycan array binding signal (z-score),[36],-0.951
same,glycan array binding signal (z-score),[37],-0.478

# Three entries from above, reformatted:
binder	measurement	setting	value
Protein L(B1-B4) (Finegoldia magna), Q51912 (protein) KEETPETPETDSEEEVTIKANLIFANGSTQTAEFKGTFEKATSEAYAYADTLKKDNGEYTVDVADKGYTLNIKFAGKEKTPEEPKEEVTIKANLIYADGKTQTAEFKGTFEEATAEAYRYADALKKDNGEYTVDVADKGYTLNIKFAGKEKTPEEPKEEVTIKANLIYADGKTQTAEFKGTFEEATAEAYRYADLLAKENGKYTVDVADKGYTLNIKFAGKEKTPEEPKEEVTIKANLIYADGKTQTAEFKGTFAEATAEAYRYADLLAKENGKYTADLEDGGYTINIRFAG	glycan array binding signal (z-score)	[3]	-0.027
same	glycan array binding signal (z-score)	[6]	-0.479
same	glycan array binding signal (z-score)	[27]	-0.496
